# Source: article PMC7510299
# These are yes or no findings as the source states them, for the method shown. For some assays here: Binding calls can cover weak binding; strength is not graded here.
# Assays:
# Assay in all cases: two-hybrid; pGBKT7 (BD, bait) and pGADT7 (AD, prey) fusions co-transformed into yeast AH109; spotting on X-a-gal medium without Leu, Trp, His and Ade; 30 °C, 3–5 days; every pair tested in both directions
# [1] = target: TeAGL11–2 (Tagetes erecta (marigold))
# [2] = target: TeAGL11–1 (Tagetes erecta (marigold))
# [3] = target: TeAG2 (Tagetes erecta (marigold))
# [4] = target: TeAG1 (Tagetes erecta (marigold))
Substance,binding [1],binding [2],binding [3],binding [4]
TeAG1 (from UniProt A0A8E4LJ76),no binding,binds,binds,–
TeAG2 (from UniProt A0A8E4LHE8),–,–,–,binds
TeAGL11–1 (from UniProt A0A7L9DJZ2),no binding,–,–,binds
TeAGL11–2 (from UniProt A0A7L9DIK2),–,no binding,–,no binding
